Measurements reported in PubChem BioAssay AID1259300 (Sanger Institute, 2017)
Purpose: 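Kinase and colorectal-mutated gene knock-downs lowering HCT15 viability or boosting drug effects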 (primary screen). Cell system: HCT15 colorectal cancer cells. Reagents: siRNA pool against human genes. Treatment: anchor drug or DMSO vehicle added 24 h after seeding: BYL719 1 µM, cetuximab 5 µg/ml, trametinib 10 nM; drug doses chosen to barely affect viability alone. Measured: 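Cell viability after knock-down, as fraction of non-targeting pool wells averaged over replicates, plus robust z-score for knock-down alone; synergy score per drug (BYL719 1 µM, cetuximab 5 µg/ml, trametinib 10 nM)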. Direction: viability z-score, siRNA alone: higher = more viable cells after knock-down. Active means: 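Called active (essential) if viability z-score with knock-down alone falls below -3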. Meaning of the calls: active = essential: knock-down alone lowers viability (z below -3); inactive = no strong viability loss with knock-down alone.
This is an unselected part of 794 reagents tested. 18 of them (2.3%) were called active. 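Calls rest on knock-down alone, not drug synergy; depositor treated synergy scores above 0.15 as synergistic; drug doses alone had little viability effect.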 Not all columns of the deposit are shown. Not stated in the record: the amount of reagent, the time to read-out.

target gene	viability z-score, siRNA alone	activity call
PHKG2 (GeneID 5261)	0.625	inactive
TRPM6 (GeneID 140803)	-0.0405	inactive
CNOT1 (GeneID 23019)	-0.215	inactive
CDK11B (GeneID 984)	-0.276	inactive
ALK (GeneID 238)	0.625	inactive
BMPR1B (GeneID 658)	0.625	inactive
STK38L (GeneID 23012)	0.625	inactive
EIF2AK1 (GeneID 27102)	0.625	inactive
RPS6KC1 (GeneID 26750)	0.625	inactive

Sorted by “viability z-score, siRNA alone” (low to high): 2 of the entries above.
target gene	viability z-score, siRNA alone	activity call
ALK (GeneID 238)	0.625	inactive
BMPR1B (GeneID 658)	0.625	inactive

The results go on.
target gene	viability z-score, siRNA alone	activity call
MED12 (GeneID 9968)	-0.0436	inactive
BRAF (GeneID 673)	0.518	inactive
PEAK1 (GeneID 79834)	0.103	inactive
SKAP1 (GeneID 8631)	0.625	inactive
IKBKE (GeneID 9641)	-1.86	inactive
ACSL6 (GeneID 23305)	0.625	inactive
MLKL (GeneID 197259)	-0.956	inactive
WNK3 (GeneID 65267)	0.625	inactive
EPHA1 (GeneID 2041)	0.625	inactive
STK33 (GeneID 65975)	0.318	inactive
CKS2 (GeneID 1164)	0.625	inactive
